Drawing on publication PMC13186993, this text covers binding for 5 molecules.

Protein sequences, listed by entry. Tags and fused reporters are not part of them. Lines headed by an entry give the natural chain unless they say otherwise; changes in a name come on top.
UniProt A0A0G2Y717: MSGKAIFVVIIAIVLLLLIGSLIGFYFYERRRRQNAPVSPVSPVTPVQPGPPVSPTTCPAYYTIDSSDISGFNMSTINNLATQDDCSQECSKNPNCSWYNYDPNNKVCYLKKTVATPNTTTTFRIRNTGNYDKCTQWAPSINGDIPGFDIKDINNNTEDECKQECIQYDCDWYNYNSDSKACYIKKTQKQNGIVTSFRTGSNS

The target of assay [1] is T1, mimivirus L323, endogenously tagged with C-terminal 3xHA (Acanthamoeba polyphaga mimivirus).
T1 sequence: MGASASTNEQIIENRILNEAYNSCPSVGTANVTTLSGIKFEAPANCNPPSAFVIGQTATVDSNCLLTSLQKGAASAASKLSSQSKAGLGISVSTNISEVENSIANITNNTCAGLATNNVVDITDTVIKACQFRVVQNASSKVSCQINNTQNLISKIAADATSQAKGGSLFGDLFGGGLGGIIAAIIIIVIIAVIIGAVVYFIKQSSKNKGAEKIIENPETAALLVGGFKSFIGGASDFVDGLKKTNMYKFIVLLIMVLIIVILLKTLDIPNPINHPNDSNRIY
In words: affinity purification with mass spectrometry; A. castellanii infected with mimivirus expressing the HA-tagged bait (MOI 10), harvested 6 hpi, cross-linked with 4% formaldehyde, lysed in RIPA buffer pH 8.0, anti-HA magnetic beads; label-free MS against cells infected with wild-type mimivirus, biological triplicates.

The target is the same in assay [2]. Described as above. This is another data set of the same source.

Where two headings read alike, the source gives them in different places. Results are given in words; binding and its absence hold for the method and conditions named. In cells and extracts the contact can be indirect. These calls come from enrichment with a bait or labelling near it, and not all partners need be listed. Tags and fused reporters may be left off the sequences shown.

As for “mimivirus L775 (from UniProt A0A0G2Y717)”, the binding entry in assay [1] is given as “binds”.

B1: mimivirus L778 (protein, UniProt A0A0G2Y8Z7 1-257)
chain: MSAIRYGDNVFITLPRLSTPMIFNGLVPHYTKPNQYEYVPILSSGSIANGDSYIIEPININNSNTALNPQSVFRLKQVSQNKYLYDNNGIVYLGNDTDNKANWSLKPVNLNATTIDYNQEFRLVNQGTGNNAVFSTINNVTMITSKYNDTTNNSIFKFLKGPFTYAQSQCCQGNILYTRPNMCGIYKQGSSVCHTIPSSQSNYPSYTTSMVGSTQSTTPVGSNPPTHRSIDKWYIIGGIFWVIVLIILVIFIIWKLK
As for B1, the binding result in assay [2] is “binds”.

B2: mimivirus R557 (protein, UniProt A0A0G2Y5V0 1-160)
chain: MSQVTGFDQSNVAQYSSFDPLGSLEHAGSNLGNFIQRNNPFPSLSQSASHTFDDVRSDSGKIFDELKSEADKFYDDAKHGLSDIDYRDFYASDPGNTVLRASMQSPYLNSYMDINNAPNVIPLQAPPIVTNRNSKDYNILFVVVILLLLFVAWRCYVNKR
As to B2, the binding result in assay [2] is on record as “binds”.

B3: mimivirus L65 (protein, UniProt E3VY52 1-355)
chain: MQKKVLFNDIVFVCFPITDNGSIIISDIGYSDDGYNRPTGRQGTIENGDPYRITVPAGYSYTNKNVQNGNMIRLVRVNDSKNGCWYNGSGDGWLEIRDYVGPDWRADWTVQIINPANNDNSLYYGQHFRLMNRAQVENPTFQGPSDFASIALWGSNNTNNSVMMLLNGPLDTAKLECCKDNPIFTQPDYCANYRGTTCSGQCDDILSNYCAQVTTTDPKCGCLLPASFYTQNSAIGPPECIDDRCVDTNSYRKSTQCHPNCQIVDCDININDFNGTNINKIVYEQECGSKSTPNGPNGPTPTPSNGPNGPTPVPGIPPANGSSTSFFSRYGLWIIIAIILLIVIISAVGIYFYLR
With B3, in assay [2], the binding result is reported as “binds”.

B4: mimivirus R486 (protein, UniProt E3VYF9 1-223)
chain: MSQTAIIIWIVVIIILLVLGGLGAYFFYSRYRHRKNIPPTPINPPSSITPIQPINPPSSITPIQPSGPPSGGNHPIPASCPAYQLVNNKAITLVPLPADTSNVKNAQDCQNLCTQNPDCYFYNYVGLFDGCSLMQGTVDNNVMTGFAIRGSEDGCPKWARYNTSIQGFNTGNPSNVESEEKCQQLCQQNSSCDWYTYDIGKKTCTLNKAIDFNTSTLGIKMPH
On to B4, for which, in assay [2], the binding result is “binds”.
